# Source: PubChem BioAssay AID2685 (National Center for Advancing Translational Sciences (NCATS), 2010)
# Where “and” joins values, the source holds several entries; their conditions need not be identical. Equal values may be shown once. This is one part of the list. The main result of the screen is listed elsewhere. These columns were measured beside it and carry no call. Most of these compounds were active or inconclusive in the main read-out, so they are no random draw. Words in brackets tell the shape of the fitted curve; partial curves, single points and poor fits give uncertain potencies.
# Experiment: qHTS Assay for Lipid Storage Modulators in Drosophila S3 Cells;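 for cell number change: cells counted by Cell Tracker Red CMTPX staining in the red channel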
# Settings: BODIPY lipid droplet fluorescence, 18-24 h; for cell number change: measured here: cell count max response, cells fed with added oleic acid
# Method in brief: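 Drosophila S3 cells loaded with oleic acid (400 uM, as added) and compounds at several concentrations; lipid droplets imaged by 488-nm laser-scanning cytometry, 500–530 nm intensity and object ratio to cell channel. Percent activity normalized to 20 uM Triacsin C.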
# [1] = measured here: lipid fluorescence (Fed channel) AC50, cells fed with added oleic acid
# [2] = measured here: cell number channel AC50, cells fed with added oleic acid
smiles,measurement,setting,value
CCC(=O)N1CC(=O)Nc2ccc(Br)cc2C1c1ccccc1 (stereo unspecified),cell number change,,23.7%
same,AC50,[1],"9.2 µM [rising, partial curve]"
CCN1CCN(Cc2nc3ccc([N+](=O)[O-])cc3c(=O)n2-c2ccccc2F)CC1,cell number change,,32.6%
same,AC50,[2],"6.51 µM [rising, partial curve]"
CC(=O)OC1(c2ccccc2)CCN(C)C2CCCCC21 (stereo unspecified),cell number change,,0.857%
Cc1ccc(/C=C2\C(=O)NC(=O)N(Cc3ccccc3Cl)C2=O)o1,cell number change,,16%
same,AC50,[2],"1.16 µM [rising, single point]"
same,AC50,[1],"1.16 µM [rising, single point]"
COc1cc(C(=O)N2C[C@H]3C[C@@H](C2)c2cccc(=O)n2C3)cc(OC)c1OC,cell number change,,24.2%
same,AC50,[1],"29.1 µM [rising, single point]"
Cc1ccc(-c2nn(Cc3ccccc3)cc2C=O)cc1C,cell number change,,-23.6%
same,AC50,[2],"0.00517 µM [falling, full curve, poor fit]"
same,AC50,[1],"3.26 µM [rising, partial curve]"
CCn1c(NN=O)nc2ccccc21,cell number change,,-32.3%
same,AC50,[1],"29.1 µM [falling, single point]"
Cn1c(O)c(C(=Nc2ccc(F)cc2)c2ccccc2Cl)c(=O)n(C)c1=O,cell number change,,26.6%
same,AC50,[1],"2.31 µM [rising, full curve, poor fit]"
O=C(/C=C/c1ccc(F)cc1)NC(=S)N1C[C@H]2C[C@H](C1)c1cccc(=O)n1C2,cell number change,,26.9%
CN=C(SCc1cc2c(cc1Cl)OCO2)c1c(O)n(C)c(=O)n(C)c1=O,cell number change,,-30.6%
same,AC50,[2],"16.4 µM [falling, single point]"
same,AC50,[1],"6.51 µM [rising, single point]"
ClC1C(Cl)C(Cl)C(Cl)C(Cl)C1Cl (stereo unspecified),cell number change,,23.1% and -28.5%
same,AC50,[2],"1.64 µM [rising, full curve, poor fit]"
same,AC50,[1],"14.6 µM [rising, partial curve, poor fit] and 29.1 µM [falling, single point]"
O=c1cccc2n1C[C@@H]1C[C@@H]2CN(CC(O)c2ccc([N+](=O)[O-])cc2)C1 (stereo partly specified),cell number change,,21.3%
same,AC50,[1],"14.6 µM [rising, partial curve]"
COc1ccc(C(O)c2ccccc2OP(=O)(N(C)C)N(C)C)cc1 (stereo unspecified),cell number change,,30.7%
same,AC50,[2],"0.184 µM [rising, partial curve, poor fit]"
same,AC50,[1],"29.1 µM [rising, single point]"
CC12CN3CC(C)(CN(C1)C3c1ccco1)C2=O (stereo unspecified),cell number change,,-26.6%
same,AC50,[2],"1.84 µM [falling, full curve, poor fit]"
CC1CCCC(C2(O)C(=O)Nc3ccccc32)C1=O (stereo unspecified),cell number change,,-6.41%
same,AC50,[1],"7.31 µM [falling, partial curve, poor fit]"
CC1=C(C(=O)O)N2C(=O)C(NC(=O)Cc3ccccc3)C2SC1 (stereo unspecified),cell number change,,-21.9%
same,AC50,[1],"1.64 µM [falling, full curve]"
O=C(COC(=O)c1ccc(O)cc1)Nc1ccc(Cl)cc1C(=O)c1ccccc1,cell number change,,-72.1%
same,AC50,[2],"13 µM [falling, partial curve]"
same,AC50,[1],"13 µM [falling, partial curve]"
CC(O)(CS(=O)(=O)c1ccccc1)C(=O)Nc1cccc(C(F)(F)F)c1 (stereo unspecified),cell number change,,5.75%
same,AC50,[1],"0.13 µM [rising, full curve, poor fit]"
C=CCN1CC[C@]23c4c5ccc(O)c4O[C@H]2C(=O)CC[C@@]3(O)[C@H]1C5,cell number change,,-11.8%
same,AC50,[1],"25.9 µM [falling, single point]"
COC(=O)C1=C(c2ccc(OC)c(OC)c2)C[C@@H]2CC[C@H]1N2C(=O)NCC1CC1,cell number change,,15%
same,AC50,[2],"4.11 µM [falling, partial curve]"
same,AC50,[1],"4.11 µM [falling, single point]"
Cc1cc(C)cc(-n2c(O)c(C=Nc3ccc(N4CCOCC4)cc3)c(=O)[nH]c2=S)c1,cell number change,,-41.1%
same,AC50,[2],"0.651 µM [falling, full curve]"
same,AC50,[1],"3.66 µM [rising, full curve, poor fit]"
CCC(=O)CC(c1ccc([N+](=O)[O-])cc1)c1c(O)c2ccccc2oc1=O (stereo unspecified),cell number change,,162%
same,AC50,[2],"18.4 µM [rising, single point]"
same,AC50,[1],"29.1 µM [rising, single point]"
c1ccc(CCNCc2cccnc2)cc1,cell number change,,0.351%
same,AC50,[1],"16.4 µM [rising, single point]"
CCOP(=S)(OCC)Oc1cc(C)oc(=O)c1,cell number change,,27.2%
same,AC50,[1],"0.411 µM [rising, partial curve, poor fit]"
Cc1ccsc1/C=C1\C(=O)NC(=S)N(C)C1=O,cell number change,,-23.4%
same,AC50,[1],"18.4 µM [falling, single point]"
CC(C)OC(=O)c1c(N)n(CC2CCCO2)c2nc3ccccc3nc12 (stereo unspecified),AC50,[2],"3.26 µM [rising, partial curve]"
CCc1ccc(CNCCc2c[nH]c3ccccc23)cc1,cell number change,,28.8%
C[C@]12CC[C@H](O)C[C@@H]1CC[C@@H]1[C@@H]2CC[C@]2(C)[C@@H](C(=O)O)C[C@@H]12,cell number change,,7.39%
CC12CC3CC(C)(C1)CC(N)(C3)C2,cell number change,,-2.91% and 1.39%
same,AC50,[1],"6.51 µM [falling, single point] and 731 nM [falling, single point]"
COc1ccc(OC)c(CN2CCN(C(=O)COc3cccc(C)c3)CC2)c1,cell number change,,-23.4%
CCOC(=O)c1c(C)n(Cc2ccc3c(c2)OCO3)c2ccc(O)cc12,cell number change,,15.6%
COc1ccc2c(c1)CC1(CN2C)C(=O)NC(=O)N(c2ccc(C)cc2)C1=O (stereo unspecified),cell number change,,6.14%
same,AC50,[2],"0.13 µM [falling, full curve, poor fit]"
CCCCCCn1c(=O)c(C(=O)Nc2ncccc2O)c(O)c2ccccc21,AC50,[1],"9.2 µM [falling, single point]"
O=c1c2ccccc2nc(-c2cccs2)n1-c1ccccc1,AC50,[1],"29.1 µM [rising, single point]"
COc1cccc(N2CCN(C(=O)C3CCN(S(=O)(=O)c4ccc5c(c4)oc(=O)n5C)CC3)CC2)c1,AC50,[2],"29.1 µM [falling, single point]"
CCOC(=O)c1cc(C)n(CCc2cnc[nH]2)c1C,cell number change,,-1.68%
same,AC50,[1],"20.6 µM [falling, partial curve, poor fit]"
Cc1sc2ncn(CC(=O)N3CCC4(CC3)OCCO4)c(=O)c2c1C,cell number change,,0.271%
same,AC50,[1],"16.4 µM [rising, single point]"
CC(=O)c1cn(Cc2ccccc2F)c2ccccc12,cell number change,,-33.3%
same,AC50,[2],"4.61 µM [falling, partial curve, poor fit]"
same,AC50,[1],"0.0326 µM [falling, full curve, poor fit]"
Cc1cc(C=O)c(C)n1CC1CCCO1 (stereo unspecified),cell number change,,-10.8%
same,AC50,[1],"0.58 µM [falling, partial curve, poor fit]"
Cc1ccc(N)c(C(=O)c2ccc(Br)cc2)c1,cell number change,,-56%
same,AC50,[2],"29.1 µM [falling, single point]"
same,AC50,[1],"29.1 µM [falling, single point]"
O=c1cc(CN2CCNCC2)nc2sccn12,cell number change,,-32.6%
same,AC50,[2],"0.58 µM [falling, full curve, poor fit]"
Fc1cccc(CNCCc2c[nH]c3ccccc23)c1,cell number change,,-24.7%
CCC(=O)OC1(Cc2ccc(CC)cc2)CC(C)N(C)CC1C (stereo unspecified),cell number change,,-21.3%
same,AC50,[2],"0.103 µM [falling, full curve, poor fit]"
same,AC50,[1],"0.58 µM [falling, full curve]"
CC(C)(C)NC(=O)NC(=O)CN1CC=C(c2ccccc2)CC1,cell number change,,22.4%
same,AC50,[1],"32.6 µM [rising, single point]"
O=C1NC(=O)N(c2ccc3c(c2)OCO3)C(=O)/C1=C\c1ccc(-c2ccccc2C(=O)O)o1,cell number change,,-52.7%
same,AC50,[2],"8.2 µM [falling, partial curve]"
same,AC50,[1],"20.6 µM [falling, partial curve]"
CCCCn1c(O)c(C(CC)=NCc2cc(OC)cc(OC)c2)c(=O)[nH]c1=O,cell number change,,14.9%
same,AC50,[1],"29.1 µM [rising, single point]"
O=c1[nH]sc2cc(F)ccc12,cell number change,,-80.2%
same,AC50,[2],"29.1 µM [falling, partial curve, poor fit]"
same,AC50,[1],"29.1 µM [falling, single point]"
C(#CCN1CCCC1)CN1CCCC1,cell number change,,2.97%
CCCSc1nc(O)c(CC)c(=O)n1C(C)CC (stereo unspecified),cell number change,,-2.84%
same,AC50,[1],"18.4 µM [falling, partial curve, poor fit]"
COc1ccc(C2=NCC(=O)N(CC(=O)NCc3ccco3)c3sc4c(c32)CCCC4)cc1OC,cell number change,,-7.78%
same,AC50,[2],"6.51 µM [rising, single point]"
same,AC50,[1],"23.1 µM [falling, single point]"
CN(C)C(=O)Oc1ccc2oc(=O)cc(-c3cc4ccccc4o3)c2c1,cell number change,,24.2%
same,AC50,[1],"0.092 µM [falling, full curve, poor fit]"
CCC(=NCc1cccnc1)c1c(O)n(Cc2ccccc2)c(=O)[nH]c1=O,cell number change,,-28.8%
CCOP(=O)(OCC)C1(O)C(=O)Nc2ccccc21 (stereo unspecified),cell number change,,-17.5%
same,AC50,[2],"0.651 µM [rising, full curve]"
same,AC50,[1],"1.3 µM [rising, partial curve]"
CN(C)c1ccc(NC(=O)CN2C(=O)CN=C(c3ccccc3)c3ccccc32)cc1,AC50,[1],"1.84 µM [falling, partial curve, poor fit]"
O=S(=O)(c1ccc(Cl)cc1)N1CCCCC1c1cccnc1 (stereo unspecified),cell number change,,26.7%
same,AC50,[2],"2.31 µM [rising, partial curve, poor fit]"
COC(=O)C1=C(c2ccc3ccccc3c2)C[C@@H]2CC[C@H]1N2C(=O)N1CCC(O)CC1,cell number change,,0.481%
same,AC50,[1],"0.58 µM [rising, single point]"
COc1cc(/C=C/c2nc3ccccc3c(=O)n2-c2ccc(O)cc2)ccc1O,cell number change,,-24.9%
same,AC50,[1],"23.1 µM [falling, partial curve]"

# 4 entries from above, set out differently:
smiles | measurement | setting | value
Cn1c(O)c(C(=Nc2ccc(F)cc2)c2ccccc2Cl)c(=O)n(C)c1=O | cell number change |  | 26.6%
O=C(COC(=O)c1ccc(O)cc1)Nc1ccc(Cl)cc1C(=O)c1ccccc1 | AC50 | [2] | 13 µM [falling, partial curve]
COc1cccc(N2CCN(C(=O)C3CCN(S(=O)(=O)c4ccc5c(c4)oc(=O)n5C)CC3)CC2)c1 | AC50 | [2] | 29.1 µM [falling, single point]
O=c1[nH]sc2cc(F)ccc12 | cell number change |  | -80.2%
